Positions count from the first letter of the chain named. These are yes or no findings as the source states them, for the method shown. Some results given as binding are weak or reduced against the parent protein; the word gives no strength. Blank lines part the entries; values can stand above or below the binder they belong to.
Biological target: cynomolgus ("cyno") NBL1 (cynomolgus)
Assay: ELISA, IgG1 format

binding: binds
B1: Antibody YU1019-A12 (antibody, V domains shown)
VH: EVQLLESGPGLVKPSQTLSLTCTVSGGSISSGDYYWSWIRQPPGKGLEWIGYIYYSGSTYYNPSLKSRVTISVDTSKNQFSLKLSSVTAADTAVYYCARGRRLLLFHWGQGTTVTVSS
VL: QSVLTQPPSVSAAPGQKVTISCSGSGSSIGNNYVSWYQQVPGTPPKLLIYDNNKRASGIPDRFSGSKSGTSATLGITGLQTGDEADYYCGTWDNSLSAVVFGGGTKLTVL

binding: binds
B2: Antibody YU1018-D06 (antibody, V domains shown)
VH: QVQLVESGPGLVKPSQTLSLTCTVSGGSISSGGYYWSWIRQHPGKGLEWIGYIYYSGSTYYNPSLKSRVTISVDTSKNQFSLKLSSVTAADTAVYYCARSGAAGIPWFDPWGQGTLVTVSS
VL: B1 VL with G26S, S28N, V40L, P44A, D51E, K54E, A56P, F63L, G75A, N94S
